Experimental data: PubChem BioAssay AID504764 (Drosophila RNAi Screening Center, 2011)
Assay: 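Knock-downs that raise or lower a Notch target reporter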 (primary screen). Cell system: Drosophila Kc167 cells. Reagent: long dsRNA against Drosophila genes. Time to read-out: about 5 days (4 days dsRNA, then 24 h after transfection). Conditions: transfection of constitutively active membrane-tethered Notch lacking the extracellular domain, read 24 h later. Measured: 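Light from a Notch-responsive E(spl)m3 luciferase reporter under active Notch, with control-promoter and no-Notch reporter wells to normalise; raw counts from paired wells a and b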. Scale: induced reporter light, run 1, well a and induced reporter light, run 1, well b: higher = more light from the Notch target reporter with active Notch; control promoter light, run 1, well a and control promoter light, run 1, well b: higher = more light from the viral control promoter (cell number, transfection, viability); uninduced reporter light, run 1, well a: higher = more light from the Notch target reporter without active Notch. Rule for the call: 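Wells with low control signal or poorly matching duplicates excluded; duplicates averaged; per source plate, z beyond ±2 for induced/control log2 ratio or beyond ±1.8 for induced/uninduced marks a hit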. Calls: active = modifier hit (raised or lowered Notch signal); inactive = not a hit.
The screen tested about 22,000 reagents; below is an unselected part of those with a known target gene and a result. In the full data, 403 (1.9%) are marked active. 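Unnormalised raw counts per well; ratio z-scores behind the hit calls and whether each hit raises or lowers signal are not deposited.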 Not stated in the record: the amount of reagent.

For CG6271 [DRSC16006], how do the results read?
induced reporter light, run 1, well a: 1.42e5; induced reporter light, run 1, well b: 1.63e5; control promoter light, run 1, well a: 2.93e5; control promoter light, run 1, well b: 2.84e5; uninduced reporter light, run 1, well a: 10992; activity call: inactive

With CIA30 (Complex I intermediate-associated protein, 30 kDa) [DRSC16266], what was measured?
induced reporter light, run 1, well a: 1.94e5; induced reporter light, run 1, well b: 1.91e5; control promoter light, run 1, well a: 2.69e5; control promoter light, run 1, well b: 2.90e5; uninduced reporter light, run 1, well a: 13500; activity call: inactive

For meng (meng-po) [DRSC02134], what does the deposit list?
induced reporter light, run 1, well a: 1.83e5; induced reporter light, run 1, well b: 1.67e5; control promoter light, run 1, well a: 2.48e5; control promoter light, run 1, well b: 2.51e5; uninduced reporter light, run 1, well a: 11925; activity call: inactive

With CG14069 [DRSC02372], what does the deposit list?
induced reporter light, run 1, well a: 1.25e5; induced reporter light, run 1, well b: 1.70e5; control promoter light, run 1, well a: 79670; control promoter light, run 1, well b: 1.14e5; uninduced reporter light, run 1, well a: 17145; activity call: inactive

What is on record for CG42714 [DRSC08798]?
induced reporter light, run 1, well a: 1.83e5; induced reporter light, run 1, well b: 1.85e5; control promoter light, run 1, well a: 1.84e5; control promoter light, run 1, well b: 1.98e5; uninduced reporter light, run 1, well a: 15145; activity call: inactive

For MED11 (Mediator complex subunit 11) [DRSC10739], what does the deposit list?
induced reporter light, run 1, well a: 7485; induced reporter light, run 1, well b: 6365; control promoter light, run 1, well a: 5750; control promoter light, run 1, well b: 6895; uninduced reporter light, run 1, well a: 3570; activity call: inactive

With Srg3 (Sting-regulated gene 3) [DRSC08984], what was measured?
induced reporter light, run 1, well a: 2.97e5; induced reporter light, run 1, well b: 2.22e5; control promoter light, run 1, well a: 2.29e5; control promoter light, run 1, well b: 2.08e5; uninduced reporter light, run 1, well a: 15030; activity call: inactive

With Srg3 (Sting-regulated gene 3) [DRSC10178], how do the results read?
induced reporter light, run 1, well a: 1.89e5; induced reporter light, run 1, well b: 1.68e5; control promoter light, run 1, well a: 2.99e5; control promoter light, run 1, well b: 2.81e5; uninduced reporter light, run 1, well a: 8235; activity call: inactive

How did the screen score Pi3K92E (Phosphatidylinositol 3-kinase 92E) [DRSC16788]?
induced reporter light, run 1, well a: 1.28e5; induced reporter light, run 1, well b: 1.46e5; control promoter light, run 1, well a: 1.45e5; control promoter light, run 1, well b: 1.59e5; uninduced reporter light, run 1, well a: 13565; activity call: inactive

What is on record for CG10845 [DRSC14272]?
induced reporter light, run 1, well a: 1.83e5; induced reporter light, run 1, well b: 1.63e5; control promoter light, run 1, well a: 2.16e5; control promoter light, run 1, well b: 1.98e5; uninduced reporter light, run 1, well a: 13395; activity call: inactive

For Tbcc (Tubulin-binding cofactor C) [DRSC00223], how do the results read?
induced reporter light, run 1, well a: 1.19e5; induced reporter light, run 1, well b: 1.13e5; control promoter light, run 1, well a: 1.55e5; control promoter light, run 1, well b: 1.83e5; uninduced reporter light, run 1, well a: 12740; activity call: inactive

With MsR1 (Myosuppressin receptor 1) [DRSC08615], what does the deposit list?
induced reporter light, run 1, well a: 1.20e5; induced reporter light, run 1, well b: 1.01e5; control promoter light, run 1, well a: 1.76e5; control promoter light, run 1, well b: 1.98e5; uninduced reporter light, run 1, well a: 7295; activity call: inactive

How did the screen score Cpr49Ab (Cuticular protein 49Ab) [DRSC05341]?
induced reporter light, run 1, well a: 1.52e5; induced reporter light, run 1, well b: 1.64e5; control promoter light, run 1, well a: 2.87e5; control promoter light, run 1, well b: 2.87e5; uninduced reporter light, run 1, well a: 15520; activity call: inactive

With Vps52 (Vacuolar protein sorting 52) [DRSC03050], what does the deposit list?
induced reporter light, run 1, well a: 2.28e5; induced reporter light, run 1, well b: 1.80e5; control promoter light, run 1, well a: 1.85e5; control promoter light, run 1, well b: 2.05e5; uninduced reporter light, run 1, well a: 15425; activity call: inactive

For Pdf (Pigment-dispersing factor) [DRSC16786], what does the deposit list?
induced reporter light, run 1, well a: 2.13e5; induced reporter light, run 1, well b: 1.53e5; control promoter light, run 1, well a: 3.55e5; control promoter light, run 1, well b: 2.92e5; uninduced reporter light, run 1, well a: 11895; activity call: inactive

Which result is listed for Prps (Phosphoribosyl pyrophosphate synthetase) [DRSC08994]?
induced reporter light, run 1, well a: 2.08e5; induced reporter light, run 1, well b: 1.99e5; control promoter light, run 1, well a: 2.16e5; control promoter light, run 1, well b: 1.91e5; uninduced reporter light, run 1, well a: 15032; activity call: inactive

Which result is listed for Prps (Phosphoribosyl pyrophosphate synthetase) [DRSC10707]?
induced reporter light, run 1, well a: 1.01e5; induced reporter light, run 1, well b: 97180; control promoter light, run 1, well a: 1.68e5; control promoter light, run 1, well b: 1.15e5; uninduced reporter light, run 1, well a: 6605; activity call: inactive

What did the screen give for Prps (Phosphoribosyl pyrophosphate synthetase) [DRSC10708]?
induced reporter light, run 1, well a: 1.40e5; induced reporter light, run 1, well b: 1.20e5; control promoter light, run 1, well a: 1.67e5; control promoter light, run 1, well b: 1.37e5; uninduced reporter light, run 1, well a: 6030; activity call: inactive

Targets above whose gene name begins with M or m (3):
meng (meng-po) [DRSC02134]: induced reporter light, run 1, well a = 1.83e5; induced reporter light, run 1, well b = 1.67e5; control promoter light, run 1, well a = 2.48e5; control promoter light, run 1, well b = 2.51e5; uninduced reporter light, run 1, well a = 11925; activity call = inactive
MED11 (Mediator complex subunit 11) [DRSC10739]: induced reporter light, run 1, well a = 7485; induced reporter light, run 1, well b = 6365; control promoter light, run 1, well a = 5750; control promoter light, run 1, well b = 6895; uninduced reporter light, run 1, well a = 3570; activity call = inactive
MsR1 (Myosuppressin receptor 1) [DRSC08615]: induced reporter light, run 1, well a = 1.20e5; induced reporter light, run 1, well b = 1.01e5; control promoter light, run 1, well a = 1.76e5; control promoter light, run 1, well b = 1.98e5; uninduced reporter light, run 1, well a = 7295; activity call = inactive
